{
  "sequences": {"note": "By UniProt entry, the sequences of proteins in these tests, tags left out. Residues count along the entry.", "UniProt P35613, residues 138-325": "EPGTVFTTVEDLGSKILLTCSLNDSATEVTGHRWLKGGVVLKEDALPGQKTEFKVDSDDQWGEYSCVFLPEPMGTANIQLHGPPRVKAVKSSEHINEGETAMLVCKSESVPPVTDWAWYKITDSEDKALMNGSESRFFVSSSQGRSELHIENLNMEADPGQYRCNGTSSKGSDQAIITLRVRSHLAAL"},
  "source": "patent CN101054416A",
  "binders": {"B1": {"name": "单克隆抗体HAb18GC2 (antibody, V domains shown)", "VH": "EVKLEESGGGLVQPGGSMKLSCVASGFTFSNFWMNWVRQSPEKGLEWVAEIRLKSNNYATHYAESVKGRFTISRDDSKSSVYLQMNNLRTEDTGIYYCTSYDYEYWGQGTLVTVSA", "VL": "NIVMTQSPKSMSMSVGERVTLSCKASENVGTYVSWYQQKPEQSPKLLIYGASNRYTGVPDRFTGSGSATDFTLTISSVQAEDLADYHCGQSYSYPFTFGSGTKLEIK"}},
  "molecular_target": "HAb18G/CD147胞外区蛋白 (human) (UniProt P35613)",
  "experiment": "indirect ELISA screening of hybridoma clones on HAb18G/CD147 extracellular region protein",
  "note": "Results are given in words; binding and its absence hold for the method and conditions named. Some binding calls cover weakened binding; strength is not graded here.",
  "data": [
    {"binder": "B1", "values": [
      {"measurement": "binding", "result": "binds"}
    ]}
  ]
}
